No constants are given. Whether binding was seen depends on the method and setting. In cells and extracts the contact can be indirect. Some binding calls cover weakened binding; strength is not graded here. Sequences can lack the tags named with a protein.
T1: GFP-tagged Get3 (S. cerevisiae) (UniProt Q12154)
T1 sequence: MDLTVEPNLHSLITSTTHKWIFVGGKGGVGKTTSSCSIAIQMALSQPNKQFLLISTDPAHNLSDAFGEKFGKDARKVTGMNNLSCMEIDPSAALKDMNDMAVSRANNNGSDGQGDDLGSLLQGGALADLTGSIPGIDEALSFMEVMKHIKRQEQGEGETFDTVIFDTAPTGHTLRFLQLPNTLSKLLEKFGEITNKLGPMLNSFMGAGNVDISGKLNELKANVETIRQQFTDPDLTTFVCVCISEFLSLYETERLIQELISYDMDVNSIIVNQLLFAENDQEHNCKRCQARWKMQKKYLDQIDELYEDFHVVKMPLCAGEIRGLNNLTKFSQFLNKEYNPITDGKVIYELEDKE

Amino acid sequences for entries named in this document (tags omitted).
UniProt Q12329: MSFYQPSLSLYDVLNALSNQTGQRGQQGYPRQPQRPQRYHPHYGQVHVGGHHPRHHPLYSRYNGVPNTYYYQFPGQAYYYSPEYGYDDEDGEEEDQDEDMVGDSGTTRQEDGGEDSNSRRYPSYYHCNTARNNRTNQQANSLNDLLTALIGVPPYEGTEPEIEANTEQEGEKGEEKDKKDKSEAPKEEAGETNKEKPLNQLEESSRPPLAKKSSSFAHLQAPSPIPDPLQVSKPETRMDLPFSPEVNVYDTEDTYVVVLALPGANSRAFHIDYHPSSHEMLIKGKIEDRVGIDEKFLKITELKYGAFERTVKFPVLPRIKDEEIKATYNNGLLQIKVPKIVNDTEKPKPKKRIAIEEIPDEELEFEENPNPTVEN

T2: Oac1-GFP (S. cerevisiae) (UniProt P32332)
T2 sequence: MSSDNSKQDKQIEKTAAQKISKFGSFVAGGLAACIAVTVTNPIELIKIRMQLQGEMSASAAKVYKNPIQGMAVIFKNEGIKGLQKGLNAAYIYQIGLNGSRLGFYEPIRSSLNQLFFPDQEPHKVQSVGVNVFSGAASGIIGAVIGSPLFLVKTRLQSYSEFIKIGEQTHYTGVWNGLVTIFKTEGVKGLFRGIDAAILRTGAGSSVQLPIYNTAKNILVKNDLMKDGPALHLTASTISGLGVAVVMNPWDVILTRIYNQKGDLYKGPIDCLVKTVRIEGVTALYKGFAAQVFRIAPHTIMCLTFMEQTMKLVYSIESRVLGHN


How the values were obtained:
[1] = biological target: GFP-tagged Hsp42 (S. cerevisiae) (UniProt Q12329); test: co-IP; yeast lysate, mouse anti-GFP antibody at 4°C overnight, Dynabeads Protein G; Tris IP Buffer (50 mM Tris pH 7.5, 150 mM NaCl, 1 mM EDTA, 10% glycerol, 1% IGEPAL); blot for GFP and FLAG
[2] = biological target: T1, GFP-tagged Get3 (S. cerevisiae); test: co-IP; yeast lysate, mouse anti-GFP antibody at 4°C overnight, Dynabeads Protein G; KHM IP Buffer (110 mM KAc, 20 mM HEPES-KOH pH 7.4, 2 mM MgCl2, 10% glycerol, 0.1% Triton-X100); blot for GFP and FLAG
[3] = biological target: T2, Oac1-GFP (S. cerevisiae); test: as above

binding [1]	binding [2]	binding [3]	Binder
binds	binds	–	FLAG-tagged Oac1 (protein, UniProt P32332 1-324) MSSDNSKQDKQIEKTAAQKISKFGSFVAGGLAACIAVTVTNPIELIKIRMQLQGEMSASAAKVYKNPIQGMAVIFKNEGIKGLQKGLNAAYIYQIGLNGSRLGFYEPIRSSLNQLFFPDQEPHKVQSVGVNVFSGAASGIIGAVIGSPLFLVKTRLQSYSEFIKIGEQTHYTGVWNGLVTIFKTEGVKGLFRGIDAAILRTGAGSSVQLPIYNTAKNILVKNDLMKDGPALHLTASTISGLGVAVVMNPWDVILTRIYNQKGDLYKGPIDCLVKTVRIEGVTALYKGFAAQVFRIAPHTIMCLTFMEQTMKLVYSIESRVLGHN
–	–	binds	Get3 with a FLAG tag (prey of the Oac1-GFP immunoprecipitation, Fig S5C) (protein, UniProt Q12154 1-354) MDLTVEPNLHSLITSTTHKWIFVGGKGGVGKTTSSCSIAIQMALSQPNKQFLLISTDPAHNLSDAFGEKFGKDARKVTGMNNLSCMEIDPSAALKDMNDMAVSRANNNGSDGQGDDLGSLLQGGALADLTGSIPGIDEALSFMEVMKHIKRQEQGEGETFDTVIFDTAPTGHTLRFLQLPNTLSKLLEKFGEITNKLGPMLNSFMGAGNVDISGKLNELKANVETIRQQFTDPDLTTFVCVCISEFLSLYETERLIQELISYDMDVNSIIVNQLLFAENDQEHNCKRCQARWKMQKKYLDQIDELYEDFHVVKMPLCAGEIRGLNNLTKFSQFLNKEYNPITDGKVIYELEDKE
